Results deposited as PubChem BioAssay AID602196 (INSERM, 2012)

Screen: 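Modifiers of cisplatin sensitivity in A549 cells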
Cells: human A549 lung cancer cells
Reagent: siRNA pair against human genes
Duration: 48 h transfection before cisplatin; time from cisplatin to read-out not stated
Conditions: cisplatin at a dose killing half of control-siRNA cells; exact dose and duration not given
Detection: 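Shift in cisplatin death relative to control siRNA, from -50 (all cells die) to +50 (no cells die); siRNAs harmful on their own scored 0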
Direction: two-siRNA summed score (-2 to +2): higher = both siRNAs protect from cisplatin killing; -2 means both sensitise
Active means: 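siRNAs harmful alone (LDH or WST-1) get 0; others get +1 for less and -1 for more cisplatin killing; genes are active when the two siRNAs give the same sign, summing to ±2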
Calls: active = both siRNAs shift cisplatin killing the same way; inactive = no consistent shift, or siRNA harmful alone
The deposit covers about 23,000 reagents; this is a random part of them. 455 of all reagents (2%) were called active. 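Active includes both protection and sensitisation; some change values fall well beyond the stated -50 to +50 range.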 A number with no mark means an inactive call. Further read-outs or replicates are left out here. Not given: the amount of reagent.

target,two-siRNA summed score (-2 to +2)
COLEC10 (collectin subfamily member 10),0
LOC402598,0
TUBAL3 (tubulin alpha like 3),0
TSLIG1 (tRNA splicing ligase complex subunit 1),0
NGEF (neuronal guanine nucleotide exchange factor),-1
GPC3 (glypican 3),0
LOC441107,1
"ABRAXAS1 (abraxas 1, BRCA1 A complex subunit)",0
ABCD3 (ATP binding cassette subfamily D member 3),-1
FRS3 (fibroblast growth factor receptor substrate 3),-1
PRKCSH (PRKCSH beta subunit of glucosidase II),0
POLR1G (RNA polymerase I subunit G),0
AFG2B (AAA ATPase AFG2B),0
MRPL36 (mitochondrial ribosomal protein L36),0
COX6A1 (cytochrome c oxidase subunit 6A1),0
KLC4 (kinesin light chain 4),0
"RARS2 (arginyl-tRNA synthetase 2, mitochondrial)",0
NPAS2 (neuronal PAS domain protein 2),0
OR5T1 (olfactory receptor family 5 subfamily T member 1),0
SLC25A41,0
OR11A1 (olfactory receptor family 11 subfamily A member 1),0
ENO1 (enolase 1),-1
LOC441094,0
AGTRAP (angiotensin II receptor associated protein),0
CIP2A (cellular inhibitor of PP2A),0
"MAGEA5P (MAGE family member A5, pseudogene)",0
TRAF6 (TNF receptor associated factor 6),0
ARSL (arylsulfatase L),0
DNPEP (aspartyl aminopeptidase),0
CASKIN2 (CASK interacting protein 2),0
YPEL4 (yippee like 4),-1
AKAP10 (A-kinase anchoring protein 10),-1
LOC441630,1
OR1D5 (olfactory receptor family 1 subfamily D member 5),0
NR2F2 (nuclear receptor subfamily 2 group F member 2),-1
LOC441429,1
LOC347381,0

A stretch from the list above:
target,two-siRNA summed score (-2 to +2)
COLEC10 (collectin subfamily member 10),0
LOC402598,0
TUBAL3 (tubulin alpha like 3),0
TSLIG1 (tRNA splicing ligase complex subunit 1),0
NGEF (neuronal guanine nucleotide exchange factor),-1
GPC3 (glypican 3),0
LOC441107,1

The results go on:
target,two-siRNA summed score (-2 to +2)
ADRB2 (adrenoceptor beta 2),0
WDPCP (WD repeat containing planar cell polarity effector),0
OR2W5,0
KIAA1337,-1
SLC25A29,0
LOC440845,1
CCDC85B (coiled-coil domain containing 85B),0
ELOVL4 (ELOVL fatty acid elongase 4),0
GPR151 (G protein-coupled receptor 151),0
LOC401097,0
PKIA (cAMP-dependent protein kinase inhibitor alpha),0
RPF1 (ribosome production factor 1 homolog),0
LOC439955,0
LARP1B (La ribonucleoprotein 1B),0
SAP30 (Sin3A associated protein 30),0
LOC390282,0
FBXL6 (F-box and leucine rich repeat protein 6),1
LOC339562,0
ULK4 (unc-51 like kinase 4),0
ZBTB6 (zinc finger and BTB domain containing 6),1
MMP26 (matrix metallopeptidase 26),-1
RXRA (retinoid X receptor alpha),-1
HCCS (holocytochrome c synthase),1
NUP42 (nucleoporin 42),0
LOC401254,0
LOC401284,0
TMEM187 (transmembrane protein 187),2 (active)
OLAH (oleoyl-ACP hydrolase),0
PLEKHB1 (pleckstrin homology domain containing B1),0
EXD3 (exonuclease 3'-5' domain containing 3),-1
LOC442022,2 (active)
GALNT18 (polypeptide N-acetylgalactosaminyltransferase 18),0
PHEX (phosphate regulating endopeptidase X-linked),-1
"PSMD11 (proteasome 26S subunit, non-ATPase 11)",1
LOC390801,2 (active)
VSIG10 (V-set and immunoglobulin domain containing 10),0
